# Taken from: PubChem BioAssay AID1224830 (NIAID, 2016)
# Purpose: 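Regulators of TLR4 signalling towards TNF-alpha in macrophage-like cells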 (primary screen)
# System: human THP-1 monocytic leukaemia cells, TNF dual-luciferase reporter clone, PMA-differentiated to macrophage-like cells
# Knock-down reagent: siRNA pool against human genes, 50 nM
# Timing: LPS for 4 h, given about 3 days after siRNA transfection
# Conditions: bacterial LPS (TLR4 ligand), 10 ng/ml
# Measured: 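Ratio of firefly to renilla light, scaled to the plate median and expressed as a robust z-score per replicate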
# Reading the numbers: TNF reporter robust z-score: higher = stronger TNF reporter response to LPS
# Rule for the call: 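a well is active when its z-score exceeds 2.8 or falls below -1.5; control wells carry no call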
# This is one part, drawn at random, of about 18,000 reagents. Of all reagents, about 2,900 (16%) got an active call. 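Calls are made per well; low scores hint the gene aids the LPS response, high scores that it dampens it.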 The numbers tell different reagents against one gene apart. Repeated entries: four replicate wells of each siRNA pool.
target,reagent no.,TNF reporter robust z-score,outcome
GJB6 (gap junction protein beta 6),1,0.57,inactive
GJB6 (gap junction protein beta 6),1,0.58,inactive
GJB6 (gap junction protein beta 6),1,-0.12,inactive
GJB6 (gap junction protein beta 6),1,1.92,inactive
MAB21L2 (mab-21 like 2),1,-0.43,inactive
MAB21L2 (mab-21 like 2),1,0.21,inactive
MAB21L2 (mab-21 like 2),1,-0.7,inactive
MAB21L2 (mab-21 like 2),1,0.2,inactive
SOBP (sine oculis binding protein homolog),1,-1.51,active
SOBP (sine oculis binding protein homolog),1,-1.72,active
SOBP (sine oculis binding protein homolog),1,-1.69,active
SOBP (sine oculis binding protein homolog),1,-1.77,active
NFAM1 (NFAT activating protein with ITAM motif 1),1,-1.38,inactive
NFAM1 (NFAT activating protein with ITAM motif 1),1,-1.3,inactive
NFAM1 (NFAT activating protein with ITAM motif 1),1,-1.23,inactive
NFAM1 (NFAT activating protein with ITAM motif 1),1,-1.21,inactive
"TLE5 (TLE family member 5, transcriptional modulator)",1,1.37,inactive
"TLE5 (TLE family member 5, transcriptional modulator)",1,1.59,inactive
"TLE5 (TLE family member 5, transcriptional modulator)",1,-0.09,inactive
"TLE5 (TLE family member 5, transcriptional modulator)",1,-0.33,inactive
TXNRD3 (thioredoxin reductase 3),1,3.06,active
TXNRD3 (thioredoxin reductase 3),1,2.07,inactive
TXNRD3 (thioredoxin reductase 3),1,1.73,inactive
TXNRD3 (thioredoxin reductase 3),1,2.71,inactive
TXNRD3 (thioredoxin reductase 3),2,-0.89,inactive
TXNRD3 (thioredoxin reductase 3),2,0.08,inactive
TXNRD3 (thioredoxin reductase 3),2,-0.27,inactive
TXNRD3 (thioredoxin reductase 3),2,-0.21,inactive
BRPF3 (bromodomain and PHD finger containing 3),1,0.87,inactive
BRPF3 (bromodomain and PHD finger containing 3),1,1.72,inactive
BRPF3 (bromodomain and PHD finger containing 3),1,3.36,active
BRPF3 (bromodomain and PHD finger containing 3),1,1.15,inactive
DBF4B (DBF4B-CDC7 kinase regulatory subunit),1,-1.31,inactive
DBF4B (DBF4B-CDC7 kinase regulatory subunit),1,-0.35,inactive
DBF4B (DBF4B-CDC7 kinase regulatory subunit),1,-0.2,inactive
DBF4B (DBF4B-CDC7 kinase regulatory subunit),1,0.01,inactive
ZBTB9 (zinc finger and BTB domain containing 9),1,0.04,inactive
ZBTB9 (zinc finger and BTB domain containing 9),1,2.81,active
ZBTB9 (zinc finger and BTB domain containing 9),1,0.85,inactive
ZBTB9 (zinc finger and BTB domain containing 9),1,2.86,active
FBP2 (fructose-bisphosphatase 2),1,1.52,inactive
FBP2 (fructose-bisphosphatase 2),1,-0.1,inactive
FBP2 (fructose-bisphosphatase 2),1,-1.43,inactive
FBP2 (fructose-bisphosphatase 2),1,0.47,inactive
GMPS (guanosine monophosphate synthase),1,-0.5,inactive
GMPS (guanosine monophosphate synthase),1,0.28,inactive
GMPS (guanosine monophosphate synthase),1,-0.24,inactive
GMPS (guanosine monophosphate synthase),1,0.26,inactive
